Laboratory results: PubChem BioAssay AID504322 (Emory University Molecular Libraries Screening Center, 2011)
Activity calls are given as the source filed them. The rule behind the calls is not given here.

What follows are compounds tested on CHOP reporter cell assay, percent of control (assay: CHOP reporter inhibitor potency, dose response, cell-based (AID 504322);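 note: CHO cells carrying a CHOP reporter stimulated with tunicamycin to induce ER stress; potency is for inhibition of the stress-induced reporter signal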).

Row | Compound | IC50
1 | Nc1nonc1-n1nnc(C(=O)N/N=C/c2ccc(OCc3ccc(F)cc3)cc2)c1COc1ccccc1 | inactive
2 | CCc1ccc(Oc2coc3cc(OCC(=O)Nc4cc(C)ccc4C)ccc3c2=O)cc1 | inactive
3 | CC(C)(C)C1CCC2(CC1)C(C#N)=C(SCC(=O)Nc1ccccc1)NC(=O)C2C#N (stereo not given) | inactive
4 | COc1ccc2[nH]c3c(C)c4ccncc4c(C)c3c2c1 | inactive
5 | COc1cc(CN2CCc3ccccc3C2)ccc1O | inactive: > 10 µM
